The record followed here is PMC11480360.

This assay deals with T1, TAK1 (transforming growth factor-β activated kinase 1), endogenous in neonatal rat cardiomyocytes (rat (endogenous in NRCMs)) (UniProt P0C8E4).
T1 sequence: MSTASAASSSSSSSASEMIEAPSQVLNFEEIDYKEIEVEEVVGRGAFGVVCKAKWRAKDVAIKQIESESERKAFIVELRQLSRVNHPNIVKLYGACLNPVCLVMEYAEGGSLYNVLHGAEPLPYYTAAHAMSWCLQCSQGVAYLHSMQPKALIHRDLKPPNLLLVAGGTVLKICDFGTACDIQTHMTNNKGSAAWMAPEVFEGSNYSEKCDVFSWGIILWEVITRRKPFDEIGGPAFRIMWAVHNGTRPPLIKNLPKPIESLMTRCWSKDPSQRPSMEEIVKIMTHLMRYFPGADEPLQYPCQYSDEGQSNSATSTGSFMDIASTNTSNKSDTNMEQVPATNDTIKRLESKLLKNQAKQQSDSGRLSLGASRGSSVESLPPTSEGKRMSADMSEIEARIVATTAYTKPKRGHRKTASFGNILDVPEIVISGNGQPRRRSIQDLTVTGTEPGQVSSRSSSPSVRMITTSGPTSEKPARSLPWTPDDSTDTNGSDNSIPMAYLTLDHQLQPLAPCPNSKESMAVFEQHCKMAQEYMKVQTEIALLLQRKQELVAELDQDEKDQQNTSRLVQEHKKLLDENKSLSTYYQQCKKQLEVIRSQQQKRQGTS
Briefly: co-IP; endogenous co-IP in NRCMs after doxorubicin treatment.

These are yes or no findings as the source states them, for the method shown. In cells and extracts the contact can be indirect. A result given as binding can be weak or reduced; the word gives no strength.

As to “TRAF3 (TNF receptor associated factor 3), endogenous in neonatal rat cardiomyocytes”, the binding result is on record as “binds”.
